Drawing on patent US6500647 (MOGAM BIOTECHNOLOGY RESEARCH INSTITUTE, dated 2002), this text covers binding for one molecule.

Chains of the proteins cited; added tags and fusions are not shown. Residues count along the entry.
UniProt P25961, residues 27-591: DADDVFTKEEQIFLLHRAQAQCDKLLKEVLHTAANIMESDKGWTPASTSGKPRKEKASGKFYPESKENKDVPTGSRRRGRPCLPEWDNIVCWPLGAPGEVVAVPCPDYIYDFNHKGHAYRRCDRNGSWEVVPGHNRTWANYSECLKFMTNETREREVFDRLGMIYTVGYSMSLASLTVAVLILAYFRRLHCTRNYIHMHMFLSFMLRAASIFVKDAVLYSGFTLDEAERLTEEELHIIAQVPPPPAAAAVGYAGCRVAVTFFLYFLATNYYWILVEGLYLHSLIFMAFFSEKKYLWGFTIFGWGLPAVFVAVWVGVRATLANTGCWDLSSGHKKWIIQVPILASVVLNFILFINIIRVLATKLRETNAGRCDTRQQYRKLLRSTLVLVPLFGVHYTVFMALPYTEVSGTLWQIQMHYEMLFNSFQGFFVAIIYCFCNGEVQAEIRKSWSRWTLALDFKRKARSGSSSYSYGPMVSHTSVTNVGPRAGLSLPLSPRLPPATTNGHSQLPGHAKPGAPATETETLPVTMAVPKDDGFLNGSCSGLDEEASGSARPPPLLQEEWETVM

Experiment [1] has as its target PTH receptor of UMR106 cell line (rat osteoblast-like osteosarcoma cell line) (rat) (UniProt P25961). In words: radioligand competition on UMR106 cells (summary of Example 10). On the technique in general: Displacement assays read how much labelled ligand stays bound in the presence of the test substance.
For experiment [2] the target is unchanged. The experiment is described as follows: radioligand competition on UMR106 cells.

Results are given in words; binding and its absence hold for the method and conditions named. Some results given as binding are weak or reduced against the parent protein; the word gives no strength.

B1: human recombinant PTH (rhPTH (1-84)) (ligand, UniProt P01270 32-115, looked up)
chain: SVSEIQLMHNLGKHLNSMERVEWLRKKLQDVHNFVALGAPLAPRDAGSQRPRKKEDNVLVESHEKSLGEADKADVNVLTKAKSQ
notes: mature; also called recombinant human PTH; purified human PTH
B1: the binding entry in experiment [1] and in experiment [2] was “binds” each time.
